From patent US20240192215A1
Results are given in words; binding and its absence hold for the method and conditions named. Some entries that bind do so weakly or less than the wild type.

Columns and labels:
[1] = biological target: T1, Peptide_019 (human); assay: peptide microarray
T1 sequence (peptide): VKQIESKTAFQEALD

[2] = biological target: T2, Peptide_054 (human); assay: peptide microarray
T2 sequence (peptide): MIKPFFHSLSEKYSN

binding [1]: binds | binding [2]: binds
B1: monoclonal antibody B264 (antibody, mouse IgG1, kappa, V domains shown)
VH: QVQLQQSGAELARPGASVKMSCKASGYTFTSYTMHWVKQRPGQGLEWIGYINPTSDYTNYNQKFKDKATLTADKSSSTAYMQLSSLTSEDSAVYFCASEGGFLYYFDYWGQGTTLTVSS
VL: DVLMTQTPLSLPVSLGDQASISCRSSQSIVHSNGNTYLEWYLQKPGQSPKLLIYKVSNRFSGVPDRFSGSGSGTDFTLKISRVEAEDLGVYYCFQGSHVPYTFGGGTKLEIKR
